# Results reported in PubChem BioAssay AID504834 (National Center for Advancing Translational Sciences (NCATS), 2011).
# In all, about 320,000 compounds went through this assay and about 22,000 (6.9%) were called active. This list was built around the results that the source calls inconclusive (neither active nor inactive); the mix of calls is not that of the screen. Calls come from the whole dose curve; as a rule, active = well fitted inhibition curve with a large enough effect; inconclusive = small, poorly fitted or top-dose-only effect, or another doubt; inactive = no such curve, though single readings can be large or run the other way. Potencies of inconclusive entries are doubtful fits and often do not repeat.
# Test: Primary qHTS for delayed death inhibitors of the malarial parasite plastid, 96 hour incubation
# Conditions: P. falciparum luciferase reporter growth; series mostly up to 28.7 µM
# In short: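 Two parasite generations (96 h, 37 C, 5% CO2) of compound exposure in infected erythrocytes (0.05% parasitemia, 2% hematocrit). Luciferase-reporter P. falciparum; decreased luminescence indicates inhibited growth, aimed at apicoplast-acting delayed death.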
# Potency is the fitted concentration of half-maximal effect.
row,SMILES,Potency
1,Cc1cccc(C)c1OCC(=O)Nc1ccc2c(c1)OCCO2,active: 11.7 µM
2,COc1ccc(CNC(=O)CSc2ncnc3nc[nH]c23)cc1,inactive
3,CCC/C(C)=N/NC(=O)c1ccccc1O,"inconclusive: 18.5 µM [inhibitor, single point]"
4,Cc1ccccc1Nc1nc(N)nc(CN2CCN(C(=O)c3ccccc3)CC2)n1,inactive
5,Cc1cc(C)n(Cc2ccc(C(=O)NCc3ccco3)o2)n1,"inconclusive: 1.31 µM [inhibitor, full curve]"
6,COc1ccc(CN2C(=O)c3cccnc3C2=O)cc1S(=O)(=O)NCc1ccccc1,inactive
7,CN(C)S(=O)(=O)c1ccc(C(=O)OCCN=C2NS(=O)(=O)c3ccccc32)cc1,"inconclusive: 13.1 µM [inhibitor, partial curve, poor fit]"
8,COc1ccc(/C=N/NC(=O)c2nnn(-c3nonc3N)c2CN(C)c2ccccc2)cc1,inactive
9,Cc1ccc(NC(=O)CN2CCCCCC2)cc1Br,"inconclusive: 13.1 µM [inhibitor, single point]"
10,Cc1ccccc1OCC(=O)N/N=C/c1ccc(Sc2nc3ccccc3s2)o1,"inconclusive: 18.5 µM [inhibitor, single point]"
11,COC(=O)C12CCC3(SCCS3)C(C(=O)OC)(CCC13SCCS3)C2,"inconclusive: 7.38 µM [inhibitor, partial curve, poor fit]"
12,CCn1c(=O)c(C(=O)Nc2ccc(C)cc2)c(O)c2ccccc21,inactive
13,Cn1c(SCc2cccc(Br)c2)nnc1-c1ccncc1,"inconclusive: 9.28 µM [inhibitor, partial curve, poor fit]"
14,OCCN1CCN(c2nc(N3CCCCC3)nc(N3CCCCC3)n2)CC1,inactive
15,O=C(CN(CCc1ccccc1)C(=O)Cn1nnc(-c2cccs2)n1)NCc1ccco1,"inconclusive: 0.165 µM [inhibitor, full curve]"
16,O=C(OCC(=O)N(C1CCCCC1)C1CCCCC1)c1ccc(O)cc1,"inconclusive: 11.7 µM [inhibitor, partial curve]"
17,Cc1ccn2c(c1)nc(=O)c1cc(S(=O)(=O)N3CCOCC3)ccc12,"inconclusive: 1.31 µM [inhibitor, full curve, poor fit]"
18,COc1ccc(/C=C/C(=O)OCC(=O)NC2CCCC2)c(OC)c1,inactive
19,COCCCNC(=O)CSc1nc2cc(S(=O)(=O)N3CCCCC3)ccc2o1,"inconclusive: 13.1 µM [inhibitor, single point]"
20,CC1(c2ccccc2)NC(=O)N(CC(=O)Nc2ccccc2N2CCCC2)C1=O (configuration not stated),inactive
21,Cc1ccc(NC(=O)C2CCN(S(=O)(=O)c3ccc4c(c3)CCCC(=O)N4)CC2)c(Br)c1,inactive
22,COc1cccc(CN2CCC(C(=O)N3CCN(c4ccccc4F)CC3)CC2)c1OC,"inconclusive: 5.22 µM [inhibitor, single point]"
23,N#CCc1c(C#N)c(N)nc(N2CCN(S(=O)(=O)c3ccccc3F)CC2)c1C#N,"inconclusive: 8.28 µM [inhibitor, partial curve, poor fit]"
24,CCc1cccc(C)c1NC(=O)CSc1nnc(-c2cc3cc(Br)ccc3o2)n1CC,"inconclusive: 13.1 µM [inhibitor, single point]"

row,SMILES,Potency
1,Cn1c(COc2ccccc2)nnc1SCC(=O)c1cccc([N+](=O)[O-])c1,"inconclusive: 18.5 µM [inhibitor, single point]"
2,CCOc1ccccc1CN1CCNC(=O)C1CC(=O)NC1CCCCC1 (configuration not stated),"inconclusive: 18.5 µM [inhibitor, single point]"
3,COc1ccc(C2Nc3ccccc3C(=O)N2NS(=O)(=O)c2ccccc2)cc1OC (configuration not stated),"inconclusive: 18.5 µM [inhibitor, single point]"
4,Cc1ccc(CNC(=O)C2CCN(S(=O)(=O)c3ccc4c(c3)CC(C)N4C(=O)C3CC3)CC2)cc1 (configuration not stated),inactive
5,CC(C)OP(=O)(OC(C)C)C(C)NC(=O)Cc1ccccc1 (configuration not stated),inactive
6,COc1cccc(-c2cc(C(=O)NCC3CCCO3)c3ccccc3n2)c1 (configuration not stated),inactive
7,CSc1ccc(CNC(=O)C2Cc3cc(S(=O)(=O)N4CCCC4)ccc3N2C(C)=O)cc1 (configuration not stated),inactive
8,CC(C)(C)c1cc(NC(=O)c2cccc(S(=O)(=O)N3CCOCC3)c2)no1,"inconclusive: 10.4 µM [inhibitor, partial curve]"
9,COC(=O)c1ccc(-c2cc(CC3(C(=O)OC)CCN(C(=O)OC(C)(C)C)CC3)on2)cc1,"inconclusive: 3.29 µM [inhibitor, partial curve]"
10,O=C(COC(=O)c1ccc(S(=O)(=O)N2CCCCCC2)cc1)NCc1ccc(F)cc1,inactive
11,COC(=O)c1cccc(N(C(=O)c2cnccn2)C(C(=O)NC2CCCCC2)c2cn(C)nc2C)c1 (configuration not stated),inactive
12,COc1ccccc1OCCCCN1CCC(C)CC1,inactive
13,COc1ccc(S(=O)(=O)n2cnc3ccccc32)cc1OC,inactive
14,Cc1c(NC(=O)c2cc(-n3cnnc3)ccc2Cl)cccc1-c1nc2ccccc2o1,"inconclusive: 8.28 µM [inhibitor, partial curve]"
15,Cc1occc1-c1nc(-c2ccncc2)no1,inactive
16,Cc1ccc(C)c(S(=O)(=O)N2CCN(C(=O)CCc3nc4ccccc4c(=O)[nH]3)CC2)c1,active: 10.4 µM
17,CC(C)Sc1cc(N2CCCC2)nc(-c2ccc(F)cc2)n1,"inconclusive: 0.0033 µM [inhibitor, full curve, poor fit]"
18,CN(C)C(=O)OCC1COc2ccccc2O1 (configuration not stated),inactive
19,COc1ccc(S(=O)(=O)N2CCOC2CNC(=O)C(=O)NCCN2CCOCC2)cc1C (configuration not stated),inactive
20,O=C(C1CCN(c2nnc(-n3cccc3)s2)CC1)N1CCCCC1,inactive
21,CN(CC(=O)NC1CCCCCC1)S(=O)(=O)c1ccc2c(c1)n(C)c(=O)c(=O)n2C,"inconclusive: 9.28 µM [inhibitor, partial curve, poor fit]"
22,Cc1cc(-c2ccc(C)c(S(=O)(=O)NCCCN3CCCCCC3)c2)on1,"inconclusive: 10.4 µM [inhibitor, single point]"
23,O=C(Nc1ccc2c(c1)CCC2)c1cccc(F)c1,inactive

# Already shown: entries from further up.
row,SMILES,Potency
23,N#CCc1c(C#N)c(N)nc(N2CCN(S(=O)(=O)c3ccccc3F)CC2)c1C#N,"inconclusive: 8.28 µM [inhibitor, partial curve, poor fit]"
24,CCc1cccc(C)c1NC(=O)CSc1nnc(-c2cc3cc(Br)ccc3o2)n1CC,"inconclusive: 13.1 µM [inhibitor, single point]"
1,Cn1c(COc2ccccc2)nnc1SCC(=O)c1cccc([N+](=O)[O-])c1,"inconclusive: 18.5 µM [inhibitor, single point]"
2,CCOc1ccccc1CN1CCNC(=O)C1CC(=O)NC1CCCCC1 (configuration not stated),"inconclusive: 18.5 µM [inhibitor, single point]"
3,COc1ccc(C2Nc3ccccc3C(=O)N2NS(=O)(=O)c2ccccc2)cc1OC (configuration not stated),"inconclusive: 18.5 µM [inhibitor, single point]"
4,Cc1ccc(CNC(=O)C2CCN(S(=O)(=O)c3ccc4c(c3)CC(C)N4C(=O)C3CC3)CC2)cc1 (configuration not stated),inactive
5,CC(C)OP(=O)(OC(C)C)C(C)NC(=O)Cc1ccccc1 (configuration not stated),inactive
6,COc1cccc(-c2cc(C(=O)NCC3CCCO3)c3ccccc3n2)c1 (configuration not stated),inactive
7,CSc1ccc(CNC(=O)C2Cc3cc(S(=O)(=O)N4CCCC4)ccc3N2C(C)=O)cc1 (configuration not stated),inactive
8,CC(C)(C)c1cc(NC(=O)c2cccc(S(=O)(=O)N3CCOCC3)c2)no1,"inconclusive: 10.4 µM [inhibitor, partial curve]"
9,COC(=O)c1ccc(-c2cc(CC3(C(=O)OC)CCN(C(=O)OC(C)(C)C)CC3)on2)cc1,"inconclusive: 3.29 µM [inhibitor, partial curve]"
10,O=C(COC(=O)c1ccc(S(=O)(=O)N2CCCCCC2)cc1)NCc1ccc(F)cc1,inactive
